Laboratory results reported in patent publication US20260053773A1, “PHARMACEUTICAL COMPOSITION AND USE THEREOF” (AUHUI TONGOO PHARMACEUTICAL TECHNOLOGY CO., LTD., priority 2022, published 2026).
Some entries repeat one wording, which the source may state once for all of them.

Test: Inhibition of COM crystal growth in three growth directions, inhibitors alone and in combination pairs
Procedure: Different concentrations of citric acid (CA) and ellagic acid (EA) were added to 25 ml of deionized water, the supersaturation of the solution was controlled at S=2.4, and the growth process of the crystal was monitored.
The hollow symbols in the figure represent the concentration required for a single inhibitor to achieve a certain effect, and the same solid symbols represent the concentration required for a combination of the inhibitors to achieve the same effect.
Different concentrations of citric acid (CA) and gallic acid (GaA) were added to 25 ml of deionized water, and the growth process of the crystal was monitored.
Different concentrations of citric acid (CA) and pyrogallol (PGA) were added to 25 ml of deionized water, and the growth process of the crystal was monitored.
Different concentrations of citric acid (CA) and protocatechuic acid (PrA) were added to 25 ml of deionized water, and the growth process of the crystal was monitored.
Comparative Example 1 differed from Example 1 merely in that ellagic acid was replaced with albumin, and the other preparation methods were the same as those in Example 1.
Comparative Example 2 differed from Example 1 merely in that ellagic acid was replaced with o-hydroxybenzoic acid, and the other preparation methods were the same as those in Example 1.
Different concentrations of hydroxycitric acid (HCA) and ellagic acid (EA) were added to 25 ml of deionized water, supersaturation of the solution was controlled at S=2.4, and the growth process of the crystal was monitored.
Different concentrations of hydroxycitric acid (HCA) and gallic acid (GaA) were added to 25 ml of deionized water, and the growth process of the crystal was monitored.
Different concentrations of potassium citrate (KCA) and ellagic acid (EA) were added to 25 ml of deionized water, the supersaturation of the solution was controlled at S=2.4, and the growth process of the crystal was monitored.
Different concentrations of potassium citrate (KCA) and gallic acid (GaA) were added to 25 ml of deionized water, and the growth process of the crystal was monitored.

Row | Structure (SMILES) | mechanism in inhibiting the growth of COM crystals
1 | O=C(O)CC(O)(CC(=O)O)C(=O)O [CA, citric acid] | combination mechanism of step pinning and kink blocking
2 | O=c1oc2c(O)c(O)cc3c(=O)oc4c(O)c(O)cc1c4c23 [EA, ellagic acid] | combination mechanism of step pinning and kink blocking
3 | O=C(O)c1cc(O)c(O)c(O)c1 [GaA, gallic acid] | only step pinning
4 | Oc1cccc(O)c1O [PGA, pyrogallol] | combination mechanism of step pinning and kink blocking
5 | O=C(O)c1ccc(O)c(O)c1 [PrA, protocatechuic acid] | kink blocking
